# Paper PMC9508819, “Rbp95 binds to 25S rRNA helix H95 and cooperates with the Npa1 complex during early pre-60S particle maturation”
# Protein sequences, listed by entry. Tags and fused reporters are not part of them.
# UniProt P40007: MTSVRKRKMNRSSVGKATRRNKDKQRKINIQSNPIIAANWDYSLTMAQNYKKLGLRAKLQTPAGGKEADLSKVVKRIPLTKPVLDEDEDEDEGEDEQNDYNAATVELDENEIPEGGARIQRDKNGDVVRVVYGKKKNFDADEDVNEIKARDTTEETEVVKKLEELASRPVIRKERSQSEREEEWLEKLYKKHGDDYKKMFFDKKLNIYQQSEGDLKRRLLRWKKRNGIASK
# UniProt P32495: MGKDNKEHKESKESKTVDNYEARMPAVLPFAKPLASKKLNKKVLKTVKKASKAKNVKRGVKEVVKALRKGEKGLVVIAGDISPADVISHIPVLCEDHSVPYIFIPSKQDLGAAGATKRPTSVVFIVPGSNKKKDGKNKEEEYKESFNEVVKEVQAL
# UniProt Q6Q547: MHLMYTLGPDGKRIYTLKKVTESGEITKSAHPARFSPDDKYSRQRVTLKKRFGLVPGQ
# UniProt P14126: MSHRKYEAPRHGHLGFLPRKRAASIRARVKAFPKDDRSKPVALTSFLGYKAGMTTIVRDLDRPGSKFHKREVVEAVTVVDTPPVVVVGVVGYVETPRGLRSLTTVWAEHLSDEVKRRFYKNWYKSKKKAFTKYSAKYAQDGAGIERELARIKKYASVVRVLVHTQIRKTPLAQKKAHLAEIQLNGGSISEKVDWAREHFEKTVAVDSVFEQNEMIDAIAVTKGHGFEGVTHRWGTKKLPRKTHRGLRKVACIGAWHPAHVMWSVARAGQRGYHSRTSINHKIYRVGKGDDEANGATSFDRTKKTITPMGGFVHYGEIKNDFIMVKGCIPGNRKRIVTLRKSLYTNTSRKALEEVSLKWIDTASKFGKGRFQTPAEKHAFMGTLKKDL
# No constants are given. Whether binding was seen depends on the method and setting. Binding seen in cells or lysates may run through a third protein. Here binding means that the protein was enriched with, or labelled near, the bait; the list need not be complete.
# T1: Noc2-TAP (S. cerevisiae) (UniProt P39744)
# T1 sequence: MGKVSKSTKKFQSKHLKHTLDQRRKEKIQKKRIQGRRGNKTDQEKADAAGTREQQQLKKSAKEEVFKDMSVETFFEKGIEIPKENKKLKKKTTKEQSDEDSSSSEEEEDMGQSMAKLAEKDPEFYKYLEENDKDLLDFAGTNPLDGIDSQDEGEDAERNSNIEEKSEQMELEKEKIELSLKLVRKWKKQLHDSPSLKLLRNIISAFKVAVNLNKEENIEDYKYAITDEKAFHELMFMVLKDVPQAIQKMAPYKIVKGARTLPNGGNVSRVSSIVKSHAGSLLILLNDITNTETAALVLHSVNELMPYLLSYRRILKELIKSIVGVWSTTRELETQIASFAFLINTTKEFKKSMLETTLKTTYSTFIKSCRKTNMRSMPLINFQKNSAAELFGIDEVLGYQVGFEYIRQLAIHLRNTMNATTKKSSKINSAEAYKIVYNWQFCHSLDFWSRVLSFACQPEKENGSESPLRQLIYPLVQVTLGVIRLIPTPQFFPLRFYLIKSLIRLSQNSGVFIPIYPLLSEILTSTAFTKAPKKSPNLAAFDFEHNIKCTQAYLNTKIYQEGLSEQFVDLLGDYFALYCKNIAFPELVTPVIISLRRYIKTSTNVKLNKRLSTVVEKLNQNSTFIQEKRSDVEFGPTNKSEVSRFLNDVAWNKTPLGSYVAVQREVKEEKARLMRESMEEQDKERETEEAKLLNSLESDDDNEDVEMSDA
# T2: Rbp95-TAP (S. cerevisiae) (UniProt P25617)
# T2 sequence: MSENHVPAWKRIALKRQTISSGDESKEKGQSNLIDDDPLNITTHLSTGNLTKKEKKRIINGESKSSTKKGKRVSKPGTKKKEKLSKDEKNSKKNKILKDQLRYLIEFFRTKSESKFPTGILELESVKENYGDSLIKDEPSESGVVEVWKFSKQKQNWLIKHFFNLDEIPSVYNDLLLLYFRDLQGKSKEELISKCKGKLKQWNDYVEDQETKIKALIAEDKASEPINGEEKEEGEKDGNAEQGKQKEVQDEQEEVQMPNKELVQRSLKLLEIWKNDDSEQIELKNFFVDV
# T3: Rbp95-TurboID (S. cerevisiae) (UniProt P25617)
# T3 sequence: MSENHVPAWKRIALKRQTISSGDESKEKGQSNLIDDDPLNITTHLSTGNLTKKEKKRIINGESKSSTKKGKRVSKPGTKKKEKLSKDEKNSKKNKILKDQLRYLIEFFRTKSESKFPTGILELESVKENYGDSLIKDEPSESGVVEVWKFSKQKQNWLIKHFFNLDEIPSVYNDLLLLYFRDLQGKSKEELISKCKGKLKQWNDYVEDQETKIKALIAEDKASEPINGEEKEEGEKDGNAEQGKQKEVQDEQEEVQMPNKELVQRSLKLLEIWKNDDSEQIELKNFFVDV
# Target: T1, Noc2-TAP (S. cerevisiae)
# Assay: affinity purification with mass spectrometry; tandem-affinity purification from yeast lysate, elution from Calmodulin Sepharose with 0.8% ammonium hydroxide; label-free semi-quantitative LC-MS/MS (LFQ, MaxQuant); for Figure 8A, B from wild-type and Δrbp95 strains
row,Molecule,binding
1,Nop16 (from UniProt P40007 1-231),binds
2,Nhp2 (from UniProt P32495 1-156),binds
3,Nop10 (from UniProt Q6Q547 1-58),binds

# Further lines, results first:
row,binding,Molecule
1,binds,Rpl3 (from UniProt P14126 1-387)
2,binds,"Rrp15 (protein, UniProt Q06511 1-250) MGSKHRVDTKDKKRTRKNAEFGREKRNSGNQELSNEPEKDTIMEGDEAEEDEQNSSSDESSKIIDNEQSDAEEDDDEEEEDDDFPRKKKSKNSKHDDGSTGFSAAVNAILSSHLKAYDRKDPIMARNKKVLKQSESEKLEYKAKKALLAEKKKLLGKARKTDIIPIASGEDRSENIRKVLEKETALRKIAQKGAVKLFNAILATQVKTEKEVSENLSEIKNKEEKKELITEVSKEKFLDLVKAAAGSDNE"
3,binds,"Rrp7 (protein, UniProt P25368 1-297) MGIEDISAMKNGFIVVPFKLPDHKALPKSQEASLHFMFAKRHQSSNSNESDCLFLVNLPLLSNIEHMKKFVGQLCGKYDTVSHVEELLYNDEFGLHEVDLSALTSDLMSSTDVNEKRYTPRNTALLKFVDAASINNCWNALKKYSNLHAKHPNELFEWTYTTPSFTTFVNFYKPLDIDYLKEDIHTHMAIFEQREAQAQEDVQSSIVDEDGFTLVVGKNTKSLNSIRKKILNKNPLSKHENKAKPISNIDKKAKKDFYRFQVRERKKQEINQLLSKFKEDQERIKVMKAKRKFNPYT"
4,binds,"Ssf2 (protein, UniProt Q12153 1-453) MAKRRQKKRTHAQITPEQERDIPKSMVIRVGQTSLANHSLNQLVKDFRQIMQPHTAVKLKERKSNKLKDFVVMCGPLGVTHLFMFTQSEKTGNVSLKIARTPQGPTVTFQVLDYSLGRDIKKFLKRPKSLNNDDVLNPPLLVLNGFSTSKRSDEDDQDVNVEKVIVSMFQNIFPPLNPARTSLNSIKRIFMINKDRETGEISMRHYFIDIREVEISRNLKRLYKAKNNLSKTVPNLHRKEDISSLILDHDLGAYTSESEIEDDAIVRVVDNQDVKAKHSQTSLSQKTPVKMTDNEEREKGIEEEDVEMEEPKPSENSQPTPRKKAIKLTELGPRLTLKLVKIEDGICSGKVLHHEFVQKSSEEIKALEKRHAAKMRLKEQRRKEQEENIAKKKAVKDAKKQRKLERRKARAEEQGEGQGKDGAMSDDGSSSSEDEHYSDVPEDLDSDLFSEVE"

# Target: T2, Rbp95-TAP (S. cerevisiae)
# Assay: as above
row,binding,Molecule
1,binds,"Dbp6 (enzyme, UniProt P53734 1-629) MFASRFDPSQLTAPAASAPEGIVGTTPPAIVPLKRQATESDNEEYGSHQDSDESSNSSSEEDEDRMQVDYGASEEDSSEVEEEESKPSTHSTVLSRFKQTVSLQERLGASDIAESKEDEGIEDEAASTHQLKQIPQPEFVKNPMNLNTNSLQFKSTGWLNTEKIYYDNSLIKPFSDYANELEAKLLQNICKNFSTNTFPIQSIILDSILPVLNFTLNVSKRNFTRRIGDILVNAATGSGKTLAYSIPIVQTLFKRQINRLRCIIIVPTKLLINQVYTTLTKLTQGTSLIVSIAKLENSLKDEHKKLSNLEPDILITTPGRLVDHLNMKSINLKNLKFLIIDEADRLLNQSFQGWCPKLMSHLKTDKLDTLPGNVIKMIFSATLTTNTEKLNGLNLYKPKLFLKQTDKLYQLPNKLNEFNINIPTAKSVYKPLILLYSICQFMAHSPIAAKILIFVKSNESSIRLSKLLQLICESRSQSSVLKNLQNLAVSINSVNSNNSKAENKKIVANFSHHSESAGITILITTDIMSRGIDINDITQVINYDPPMSSQQYVHRVGRTARANELGSAYNLLVGRGERTFFDDLNKDLDRDGKSVQPLELDFTLLESDSELYTSSLESLKNYHNNTAQA"
2,binds,"Mak5 (enzyme, UniProt P38112 1-773) MGKKRAPQKGKTVTKPQEIIVDESKLNWKPVDIPDTLDDFGGFYGLEEIDGVDVKVVDGKVTFVTKKDSKVLKDSNKEKVGDDQESVENESGSDSESELLEFKNLDDIKEGELSAASYSSSDEDEQGNIESSKLTDPSEDVDEDVDEDVLKENVFNKDINIDDISPVNLPEWTNLAPLSMTILQSLQNLNFLRPTEIQKKSIPVIMQGVDVMGKASTGSGKTLAYGIPIVEKLISNFSQKNKKPISLIFTPTRELAHQVTDHLKKICEPVLAKSQYSILSLTGGLSIQKQQRLLKYDNSGQIVIATPGRFLELLEKDNTLIKRFSKVNTLILDEADRLLQDGHFDEFEKIIKHLLVERRKNRENSEGSSKIWQTLIFSATFSIDLFDKLSSSRQVKDRRFKNNEDELNAVIQHLMSKIHFNSKPVIIDTNPESKVSSQIKESLIECPPLERDLYCYYFLTMFPGTTLIFCNAIDSVKKLTVYLNNLGIPAFQIHSSMTQKNRLKSLERFKQQSAKQKTINHSNPDSVQLSTVLIASDVAARGLDIPGVQHVIHYHLPRSTDIYIHRSGRTARAGSEGVSAMICSPQESMGPLRKLRKTLATKNSVSTDLNSRSTNRKPIKWQNTVPLLPIETDILSQLRERSRLAGELADHEIASNSLRKDDNWLKKAADELGIDVDSDEDDISKSNSDTFLLKNKNKKMQKTINKDKVKAMRATLNELLSVPIRKDRRQKYLTGGLVNLADNLVKKRGHNSIIGHEKTNALETLKKKKKRNN"

# Target: T3, Rbp95-TurboID (S. cerevisiae)
# Assay: proximity labelling; TurboID: C-terminally TurboID-tagged bait from the CUP1 promoter in yeast, 500 uM copper sulfate and biotin for 1 h; biotinylated proteins purified on streptavidin agarose, LC-MS/MS; enrichment against NLS-GFP-TurboID control
row,binding,Molecule
1,binds,"Rrs1 (protein, UniProt Q08746 1-203) MSAEDYKNLPVTVEKPIPVVYDLGNLAAFDSNVLDKNDLDSSNARREEKIKSLTRDNVQLLINQLLSLPMKTTTESVGGTGGQSSVMTLLQLPDPTTDLPREKPLPKAKAMTKWEKFAAKKGIKPKERAGKMIYDEASGEWVPKWGYKGANKKLDDQWLVEVDDKVKGTDNELIDPRTLNRAERKRLVKKNEKQQRRNMKNAL"
2,binds,"Rok1 (enzyme, UniProt P45818 1-564) MDIFRVLTRGASVKKESGPKAKAADYSVINGNDENHKEDNNESQIVKELDFFRNKRIISKVEDDREKTTENDSPNKEEKSGNDDGLIKPVITNTVEASALRKSYKGNVSGIDIPLPIGSFEDLISRFSFDKRLLNNLIENGFTEPTPIQCECIPVALNNRDVLACGPTGSGKTLAFLIPLVQQIIDDKQTAGLKGLIISPTKELANQIFIECFKLSYKIFLEKKRPLQVALLSKSLGAKLKNKVVSDKKYDIIISTPLRLIDVVKNEALDLSKVKHLIFDEADKLFDKTFVEQSDDILSACREPSLRKAMFSATIPSNVEEIAQSIMMDPVRVIIGHKEAANTNIEQKLIFCGNEEGKLIAIRQLVQEGEFKPPIIIFLESITRAKALYHELMYDRINVDVIHAERTALQRDRIIERFKTGELWCLICTDVLARGIDFKGVNLVINYDVPGSSQAYVHRIGRTGRGGRSGKAITFYTKQDSVAIKPIINVMKQSGCEVSEWMDKMAKMTRKEKESIKNGKAHKERKQITTVPKMDKAKRRRQQEMIAASKRRKNEELSKKHFSK"
